According to publication doi:10.1101/2021.12.06.470909:
Results are given in words; binding and its absence hold for the method and conditions named. In cells and extracts the contact can be indirect. A yes stands for co-enrichment or nearness to the bait. Other partners may have been found. Tags and fused reporters may be left off the sequences shown.

Protein sequences, listed by entry. Tags and fused reporters are not part of them.
UniProt O13731: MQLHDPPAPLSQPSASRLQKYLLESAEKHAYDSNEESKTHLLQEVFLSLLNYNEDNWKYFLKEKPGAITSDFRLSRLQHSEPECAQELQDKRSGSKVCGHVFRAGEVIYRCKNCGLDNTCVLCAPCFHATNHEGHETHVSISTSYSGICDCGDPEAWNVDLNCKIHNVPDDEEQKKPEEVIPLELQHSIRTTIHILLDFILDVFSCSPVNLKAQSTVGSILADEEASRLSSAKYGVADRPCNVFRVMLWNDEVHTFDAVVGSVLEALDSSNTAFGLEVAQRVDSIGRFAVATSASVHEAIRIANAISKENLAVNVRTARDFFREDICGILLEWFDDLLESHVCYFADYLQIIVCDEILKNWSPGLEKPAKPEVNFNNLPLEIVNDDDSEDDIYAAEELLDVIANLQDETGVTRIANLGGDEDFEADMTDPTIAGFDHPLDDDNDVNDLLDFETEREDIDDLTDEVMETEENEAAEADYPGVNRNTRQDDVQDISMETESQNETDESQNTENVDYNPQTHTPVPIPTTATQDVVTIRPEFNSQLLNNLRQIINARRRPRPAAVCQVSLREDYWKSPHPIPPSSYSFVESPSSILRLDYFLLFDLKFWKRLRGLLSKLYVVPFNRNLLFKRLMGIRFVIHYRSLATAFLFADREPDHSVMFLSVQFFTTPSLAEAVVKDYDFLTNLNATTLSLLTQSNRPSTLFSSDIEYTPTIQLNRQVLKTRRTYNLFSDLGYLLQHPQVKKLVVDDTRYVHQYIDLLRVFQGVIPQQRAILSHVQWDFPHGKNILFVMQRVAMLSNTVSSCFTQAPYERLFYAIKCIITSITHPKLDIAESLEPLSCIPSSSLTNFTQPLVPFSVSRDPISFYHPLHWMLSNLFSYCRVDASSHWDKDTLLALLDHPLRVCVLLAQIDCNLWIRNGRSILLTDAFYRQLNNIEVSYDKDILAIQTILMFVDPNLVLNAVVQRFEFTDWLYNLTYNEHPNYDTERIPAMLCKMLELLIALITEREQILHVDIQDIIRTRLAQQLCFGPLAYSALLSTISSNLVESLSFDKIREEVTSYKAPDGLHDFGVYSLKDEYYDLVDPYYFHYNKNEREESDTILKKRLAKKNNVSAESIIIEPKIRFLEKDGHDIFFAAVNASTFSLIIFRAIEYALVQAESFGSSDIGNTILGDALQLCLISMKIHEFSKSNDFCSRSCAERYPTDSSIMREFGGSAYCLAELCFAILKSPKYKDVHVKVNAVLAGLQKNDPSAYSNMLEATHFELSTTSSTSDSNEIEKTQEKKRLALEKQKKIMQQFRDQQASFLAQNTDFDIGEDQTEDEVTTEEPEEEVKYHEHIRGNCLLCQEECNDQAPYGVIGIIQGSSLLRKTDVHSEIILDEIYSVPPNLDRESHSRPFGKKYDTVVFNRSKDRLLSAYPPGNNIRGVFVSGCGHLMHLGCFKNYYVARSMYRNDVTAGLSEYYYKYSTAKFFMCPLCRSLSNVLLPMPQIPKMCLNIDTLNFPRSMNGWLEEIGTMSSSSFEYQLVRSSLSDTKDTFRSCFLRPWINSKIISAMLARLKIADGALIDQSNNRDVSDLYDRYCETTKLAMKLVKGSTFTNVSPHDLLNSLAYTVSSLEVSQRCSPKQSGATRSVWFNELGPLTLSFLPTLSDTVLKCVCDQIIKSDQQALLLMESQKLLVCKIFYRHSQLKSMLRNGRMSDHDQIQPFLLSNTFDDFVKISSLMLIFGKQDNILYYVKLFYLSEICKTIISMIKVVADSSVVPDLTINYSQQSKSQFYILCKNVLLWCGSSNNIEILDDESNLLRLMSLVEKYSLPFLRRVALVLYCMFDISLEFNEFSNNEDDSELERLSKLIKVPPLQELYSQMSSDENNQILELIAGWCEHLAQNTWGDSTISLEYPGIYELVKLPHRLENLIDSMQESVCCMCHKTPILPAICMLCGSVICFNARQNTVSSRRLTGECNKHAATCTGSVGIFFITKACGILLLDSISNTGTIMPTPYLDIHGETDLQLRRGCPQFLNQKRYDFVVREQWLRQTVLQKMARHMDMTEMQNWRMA

T1: Cts1-flag-3HA (S. pombe CTP synthase tagged with flag and 3HA) (S. pombe) (UniProt O42644)
T1 sequence: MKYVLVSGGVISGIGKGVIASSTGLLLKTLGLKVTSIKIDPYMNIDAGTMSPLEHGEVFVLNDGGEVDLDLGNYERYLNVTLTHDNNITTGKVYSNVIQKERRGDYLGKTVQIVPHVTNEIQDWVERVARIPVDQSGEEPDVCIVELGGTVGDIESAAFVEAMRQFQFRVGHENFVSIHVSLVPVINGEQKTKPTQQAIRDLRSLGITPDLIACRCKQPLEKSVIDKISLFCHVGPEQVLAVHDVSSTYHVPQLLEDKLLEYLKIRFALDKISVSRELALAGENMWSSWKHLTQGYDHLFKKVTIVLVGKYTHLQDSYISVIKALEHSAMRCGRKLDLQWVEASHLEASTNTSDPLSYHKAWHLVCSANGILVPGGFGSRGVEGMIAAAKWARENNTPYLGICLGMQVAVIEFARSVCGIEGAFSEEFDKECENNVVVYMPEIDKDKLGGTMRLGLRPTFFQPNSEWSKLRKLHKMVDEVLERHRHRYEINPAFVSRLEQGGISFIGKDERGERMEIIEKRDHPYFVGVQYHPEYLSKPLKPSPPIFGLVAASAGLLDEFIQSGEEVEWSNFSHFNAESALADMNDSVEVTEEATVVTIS

B1: Mug30 ubiquitin ligase (enzyme, UniProt O94275 1-807)
chain: MSRPIEIANVSSGNRRTLPALHGSSFSSRSELDNNTNSKISRRLRELVCQRMGENPLRLRQSFHETISNDSYGNSEKLVIRPCICCNSVLRYPAQAMCFRCSLCMTVNDVYFCLSGSQIKTKASTDGSQFISVEHFVETIHQTRSALQLAKQRTGNVQAIVAAGLPLRELISLVFGSPPILNKLFSVKNGCSIQSSGLNYKLIYQLYHDITNLDILITNELLRAIESLLRRPMLYCHDPADYQYLLILLENPLLNSKSKNIVNKSSSILKRILGVLSNLNEKTHHFFISCFKKQPYNNPKFFRRKVDLINKFIGQRLMETYSRNKRKHYYNNDWQIKSAAITMALLYSANSQMRLIDRSSFYCIMADFINLYHDFELWEQKINCFCFCQYPFLLSMGAKISILQLDARRKMEIKAREAFFSSILSKMNVEPYLMIRVRRDRLLEDSLRQINDRNKDFRKALKVEFLGEEGIDAGGLKREWLLLLTRKVFSPEFGLFVNCEESSNYLWFNYSHRSKEIDYYHMSGILMGIAIHNSINLDVQMPRAFYKKLLQLPLSFNDLDDFQPSLYRGLKELLLFEGDVKNTYGLNFTINLKAVEGFRTVELKEGGSELSVDNENRKEYVLRYVDYLLNTTVKKQFSAFFDGFMKVCGGNAISLFQDNEISKLIRGSEEVIDWELLKNVCVYDFYDQNAISNSISESEPSMTASKYLCHSFVSKRKIILWFWDLISHYSLKMQKLFLIFVTGSDRIPATGAHNFQLRISVLGPDSDQLPISHTCFNHLCIWEYSSREKLKKKLDTALLETNGFNIR

Target: T1, Cts1-flag-3HA (S. pombe CTP synthase tagged with flag and 3HA) (S. pombe)
Experiment: affinity purification with mass spectrometry

| Molecule | binding |
| --- | --- |
| Ubr11 ubiquitin ligase (from UniProt O13731 1-2052) (enzyme) | binds |
| B1 | binds |
